Laboratory results as given in PubChem BioAssay AID624297 (National Center for Advancing Translational Sciences (NCATS), 2012).
The campaign covered roughly 340,000 compounds. About 6,200 (1.8%) were called active. The inconclusive results got no clear call from the source; some entries with a clear call stand among them for comparison. Calls follow the shape of the dose curve; as a rule, active = well fitted activation curve with a large enough effect; inconclusive = small, poorly fitted or top-dose-only effect; inactive = no such curve, though single readings can be large or run the other way. Potencies of inconclusive entries are doubtful fits and often do not repeat.

Experiment: A quantitative high throughput screen for small molecules that induce DNA re-replication in SW480 colon adenocarcinoma cells. Also: nearly all actives have a fitted effect of over 55% in size.
Settings: Hoechst DNA content imaging, 48 h; series mostly up to 46.1 µM
Summary of the method: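 Compounds, transferred as 23 nL by pin tool, were incubated with cells for 48 hr; DNA content per nucleus was then quantified by Hoechst staining and fluorescence plate imaging.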
Potency is read from the fitted curve at half-maximal effect.

Compound	Potency
CC1=CC(C)(C)N2C(=O)C3(N=C(N)NC(Nc4ccccc4)=N3)c3cc(C)cc1c32 (centres undefined)	inconclusive: 18.4 µM [activator, single point]
COc1ccc(NC(=O)COC(=O)CNS(=O)(=O)c2ccc(F)c(F)c2F)cc1OC	inactive
COc1ccc(CCNC(=O)C2CCN(C(=O)c3ccc(Br)cc3)CC2)cc1OC	inactive
COCCn1c(SCC(=O)Nc2ccc(S(=O)(=O)N(C)C)cc2)nc2ccccc21	inactive
CCC(=O)N1CCN(c2ccc(NC(=S)NC(=O)c3cc4ccccc4o3)cc2)CC1	inconclusive: 29.1 µM [activator, single point]
O=C(/C=C\c1cn(-c2ccccc2)nc1-c1ccccc1)Nc1nccs1	inconclusive: 18.4 µM [activator, partial curve, poor fit]
CC1=C(C(=O)OCc2ccccc2)C(c2ccccc2)NC(=O)N1CCCC(=O)O (centres undefined)	inconclusive: 3.66 µM [activator, partial curve, poor fit]
O=C(C1CCCCN1S(=O)(=O)c1ccccc1[N+](=O)[O-])N1CCCCC1 (centres undefined)	inconclusive: 29.1 µM [activator, single point]
COc1ccccc1C1CCN(C(=O)c2ccco2)CC1	inconclusive: 29.1 µM [activator, single point]
CC(C)c1ccccc1OCC(O)CN(CC(O)COc1cccc2ccccc12)C(C)C (centres undefined)	inconclusive: 20.6 µM [activator, single point]
CCCCc1ccc(CC(=O)Nc2cc(S(=O)(=O)N3CCOCC3)ccc2O)cc1	inactive
Cc1ccccc1Cn1nc(C)c(NC(=O)C2c3ccccc3Oc3ccccc32)c1C	inconclusive: 29.1 µM [activator, single point]
COc1cc2nc(NC(=O)c3ccco3)sc(=O)c2cc1OC	inconclusive: 18.4 µM [activator, single point]
CN(C)CCCNC(=O)c1cc(C(=O)c2cccc(Cl)c2Cl)c[nH]1	inconclusive: 14.6 µM [activator, partial curve]
O=C(CN1C(=O)S/C(=C\c2ccccc2)C1=O)Nc1cc([N+](=O)[O-])ccc1O	inconclusive: 14.6 µM [activator, single point]
O=C(CNC(=O)C1CCCCC1)NCCCO	inconclusive: 23.1 µM [activator, single point]
CCOCCCNC(=O)C(NC(=O)c1ccc2c(c1)OCO2)c1ccc(Cl)cc1 (centres undefined)	inactive
CC(C)(C)C(=O)N1CCC[C@H]1C(O)(c1ccccc1)c1ccccc1	inconclusive: 7.31 µM [activator, partial curve, poor fit]
O=C(CSCc1ccccc1)Nc1ccccc1C(=O)Nc1ccc(C(=O)O)cc1	inconclusive: 0.259 µM [activator, full curve, poor fit]
COCCSc1ncnc2c1oc1nc3c(cc12)COC(C)(C)C3	inconclusive: 3.26 µM [activator, partial curve, poor fit]
CCN1C=C(Cc2ccc(F)cc2)C2=C(C1)C(c1ccc(F)cc1)C(C#N)=C(N)O2 (centres undefined)	inconclusive: 29.1 µM [activator, single point]
Cc1cc(Br)ccc1OCC(=O)NC1CCCC1	inactive

Compound	Potency
O=C(COC(=O)CC1CC2CCC1C2)Nc1cc([N+](=O)[O-])ccc1F (centres undefined)	inconclusive: 1.26 µM [activator, full curve, poor fit]
O=C(CC(=O)c1cccnc1)c1ccccc1	inconclusive: 29.1 µM [activator, single point]
Cc1nn(-c2ccccc2Cl)c(Cl)c1/C=C(\C#N)C(N)=O	inconclusive: 29.1 µM [activator, single point]
COc1ccc(-c2nnc3sc(-c4ccco4)nn23)cc1OC	inactive
C[C@H](CO)N1C[C@H](C)[C@@H](CN(C)S(=O)(=O)c2ccc(F)cc2)Oc2ccc(NC(=O)Cc3cn(C)c4ccccc34)cc2C1=O	inconclusive: 0.146 µM [activator, partial curve, poor fit]
CC1CC(C)CN(C(=O)C2CCN(S(=O)(=O)c3cccc4cccnc34)CC2)C1 (centres undefined)	inactive
Oc1ccc(Br)cc1/C=N/Nc1ccccn1	active: 9.2 µM
O=C(c1cc2ccccc2o1)N1CCCCCC1	inactive
Cc1cc(=O)oc2c(C)c(OC(C)C(=O)NCC(O)c3ccccc3)ccc12 (centres undefined)	inactive
CC(C#N)(Cc1ccccc1)Nc1ccccc1 (centres undefined)	inactive
C=CCC[C@@H](Cc1ccc(F)cc1)C(=O)O[C@H](CNC(=O)[C@H](CC=C)CC(=O)N(CCO)Cc1ccccc1)c1ccccc1	inconclusive: 29.1 µM [activator, single point]
COC(=O)c1ccc(CSc2nc3ccccc3c(=O)n2-c2cccc(OC)c2)o1	inactive
CCC(C)c1ccc(C(C)NC(=S)NCc2ccc(F)cc2)cc1 (centres undefined)	inconclusive: 8.2 µM [activator, partial curve, poor fit]
c1ccc(Nc2nc(Nc3ccccc3)nc(N3CCNCC3)n2)cc1	inconclusive: 29.1 µM [activator, single point]
CC(=O)N1c2ccc(Cl)cc2C2C=CCC2C1c1cccc2ccccc12 (centres undefined)	inconclusive: 23.1 µM [activator, single point]
O=C(C[n+]1ccccc1)N/N=C/c1cc(Br)ccc1F	inactive
COc1cc2nc(Nc3ccc(F)cc3)nc(N)c2cc1OC	inconclusive: 29.1 µM [activator, single point]
CSc1cccc(NC(=O)Cn2cnc(S(=O)(=O)N3CCCC3)c2)c1	inconclusive: 29.1 µM [activator, single point]
Cc1cccc(CN2C3=NCCCN3c3ccccc32)c1	inactive
O=C1C2C3C=CC(C3)C2C(=O)N1c1ncc([N+](=O)[O-])s1 (centres undefined)	inactive
Cc1ccc(C)c(Cn2nnc3c(=O)[nH]c(C4CCCN(C(=O)C5CCC5)C4)nc32)c1 (centres undefined)	inactive
CCOC(=O)C1CCN(c2nc3ccccc3nc2C(C#N)C(=O)OC(C)COC)CC1 (centres undefined)	inconclusive: 29.1 µM [activator, partial curve, poor fit]
